PubChem BioAssay AID1508600 (Functional Genomics Laboratory (NCATS/FGL), 2020)
Hit rate of the full screen: of about 53,000 sequences, about 3,700 (7%) were called active.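 How the source made its calls: active means gene knockdowns whose robust z-score for IL-1 alpha signal is at least 2 or at most -2, so actives lie on both sides; inactive means the rest.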 The list shows a part of the results.

Test: Components of the Cytosolic LPS Sensing Pathway: Gene Identification via Genome-wide siRNA Screen
Details: RAW264.7 macrophages, IL-1a HTRF, actives lie on both sides, screened at 100 nM (by protocol), cells primed 5 h with Pam3CSK4 first
From the text: Non-canonical inflammasome activation by cytosolic LPS is a critical component of the host response to Gram-negative bacterial infection, however we lack a comprehensive understanding of the cellular processes that control this pathway. Here we describe a genome-wide siRNA screen to identify genes regulating the mouse macrophage IL-1 alpha response to cytosolic LPS.
RAW264.7 cells were maintained in complete DMEM media, comprising DMEM with 4.5 g/L glucose, 10% FBS (Gemini Bio-Products, West Sacramento, CA), 2 mM Glutamine (Lonza) and 20 mM HEPES (Lonza), hereafter complete DMEM.
The RNAi screen was conducted in 384-well format using the Ambion Silencer Mouse Genome siRNA Library (#4391425), which consists of three unique, nonoverlapping, nonpooled siRNAs for each of 17,000 gene targets. siRNA reagents ([…]) were stamped into 384-well white flat-bottom microplates (Corning, 3570) using a Velocity11 VPrep liquid handling system (Agilent) integrated into a BioCel robotic platform (Agilent) in columns 1-22, leaving columns 23-24 empty for negative (Ambion, Negative control #1) and positive (mouse Casp4) controls, respectively. The median value of each plate's negative control column was used to normalize sample wells, and the positive control was used to assess transfection efficiency and assay performance.
Lipofectamine RNAiMAX Transfection Reagent ([…]; Invitrogen) was added in […] serum-free, antibiotic-free media to plate wells using a Thermo Scientific Matrix WellMate and Microplate Stacker. Plates were incubated for 45 min at room temperature to allow for the sufficient formation of siRNA-lipid complexes. Cells were seeded at a density of 1x10^4 cells per well in 20 microL media containing 20% (vol/vol) FBS without antibiotics. The final concentration of siRNA in each well was 100 nM. Cells were cultured for 48h at 37 degrees C in 5% CO2 before addition of […] of TLR ligand Pam3CSK4 for 5 hours. The medium was then removed, replaced with […] growth media and cell were transfected with […] of LipidA and TransIT-TKO (Mirus) for 24 hour. At the end of the LipidA treatment, […] of supernatant was transferred to a 384 Greiner Bio-one non-binding low volume plate and […] of IL-1a HTRF reagent (Cisbio, 62MIL1APEH) was added and incubated at room temperature overnight. The plates were read on an EnVision plate reader (PerkinElmer). Cell viability was measured by adding 20ul Cell Titer Glo to the original plate and running a luminescence read on the EnVision. The quantified IL-1a signal for each siRNA gene-targeted well was divided by the median of the negative control wells and multiplied by 100 to achieve a negative control normalized value for each well/siRNA. This normalized value was then used to generate a robust z-score by first taking the log of each value and then by subtracting the median and dividing by the […].

Row | Sequence | z-score
1 | CCAAGAGAUCCUUAUUAAATT against Necap2 | inactive: -0.215
2 | GGUGGAAGCUAGAAACCUATT against Cpne1 | inactive: 0.57
3 | AAGAGCCAUUAAUCGAGAATT against Cklf | inactive: -0.0691
4 | GGGAAAAGCAAACACUAAUTT against C1d | inactive: -1.84
5 | GGCCAGGAAAGAUUUCGAATT against Rab1a | inactive: 0.0539
6 | GGGUGGUGACCCUAAAACUTT against Zfp819 | inactive: 0.931
7 | GGCACUCCUGAUGUUCUCUTT against Cyb561d2 | active: -2.96
8 | CCAGUUCAGAGAUUAUCUUTT against Olfr826 | active: -2.13
9 | CCAUAGGUUUCGGCAUGACTT against Kcnk12 | inactive: -0.107
10 | GGUUUUUAUACUCUGGGAUTT against Elavl1 | inactive: 1.1
11 | CCUCAUCAAGACCUACAAGTT against Dyrk1b | inactive: 1.88
12 | GCUAGCUAAUCCUUGUUUATT against Golm2 | inactive: 0.496
13 | GGAUAUGCUGUGAAGUAUUTT against Plekhf2 | inactive: 1.68
14 | GCUAAGCUAAAUUAAAUGCTT against Rp2 | inactive: 0.258
15 | GGGAUGCUUUGUUGCUGUUTT against Olfr836 | inactive: 0.296
16 | CGCGUAGAUAAGAAGUAUUTT against Anks1 | inactive: 0.181
17 | GCCCUGAACUACCUAGAAATT against Alg5 | inactive: 1.58
18 | CCAAGUUCUCAUGGUUCUGTT against Serpina3k | inactive: -0.302
19 | GGAGAGCUCCUAUAAUCCUTT against Plau | inactive: 0.267
20 | GGAAUUCAAAACCUUCUAUTT against Rai14 | inactive: -0.521
21 | GGCAUCUCCACCUUUUCAUTT against Abcc9 | inactive: -0.833
22 | CCAUCAAUUUGGAGACUAUTT against Cav1 | inactive: 0.212
23 | GGAACAUGUUUAUAUGGUATT against Iigp1 | inactive: 0.355

Row | Sequence | z-score
24 | GGAAUUGUCUAAAUUGGCUTT against Hoxd1 | inactive: -1.19
25 | GGGAUUUACACUCACUCCUTT against Tle2 | inactive: -0.406
26 | CGGUGGAAAUACCAGGAUGTT against Tshb | inactive: 0.406
27 | GGUAGUUAACACAAAAUUGTT against 4932438H23Rik | inactive: 0.334
28 | GGAGUCCCAAACCUUCUCATT against Spata3 | inactive: -1.8
29 | GGGAAGGACUGUAAGAAAATT against Dipk1a | inactive: -0.252
30 | GGACUUUGCCCUGGAUUCUTT against Cnot1 | inactive: -0.216
31 | CCUGGUAUACGUUUACAAUTT against Lama4 | inactive: 0.773
32 | GCGAACCCUAAGUAAGAAGTT against U2surp | inactive: -0.989
33 | GGUUGCUGUGUUGAAGAAATT against Ttbk2 | inactive: 0.446
34 | GCUAUUAAUAUCCUGGUCCTT against Slc7a2 | inactive: -0.543
35 | GGAUUGAAGUCCCUUUACUTT against Zdhhc16 | active: 2.27
36 | GCCCACCAUGUCGUAUGUGTT against Hils1 | inactive: -0.846
37 | GGCCGCAUACUGAUGAAAGTT against Scgn | inactive: -0.395
38 | GGAACAGCAAACUGAAAACTT against Chia1 | inactive: 0.216
39 | GCAUACAAUCAUGUAAGAGTT against Adprh | inactive: 0.0994
40 | GCCUAGCAUUCUUGUGCAATT against 1700093K21Rik | inactive: 0.883
41 | GGACCGAGUACACCAUGAGTT against Calu | inactive: -1.02
42 | GGACUUCAUGGCUAGUUUCTT against B4galt4 | inactive: -0.14
43 | GCACCGACCACCAAAUCUATT against Prol1 | inactive: 0.65
44 | GGAGUUUGACCGGAAGUACTT against Arhgap8 | inactive: -2
45 | GCACAUACAGAGCUCGUCUTT against Zkscan6 | inactive: -0.471
46 | GGUUUUUGAAUUCCAGUUGTT against Akr1c14 | inactive: 0.571

Row | Sequence | z-score
47 | GGAUUGAAGAGAAUUUACCTT against C2cd5 | inactive: 0.445
48 | GCUAUUCGGCUAAAGCAGCTT against Etfdh | inactive: -0.285
49 | GCCAUGCUAGUCUUAGAAATT against Zfp781 | inactive: -1.66
50 | GCCCAUGGAUACUACUUCATT against Syncrip | inactive: 0.411
51 | GAGAGAGGGAAUUUGCUCCTT against Pcdhb8 | active: 2.6
52 | GGUCAGUCAUUUUUCACUUTT against Zpld1 | inactive: -0.0758
53 | GGCAUUGUGAUUCUUUGUCTT against Tal1 | inactive: -0.39
54 | GGAGUCAGUGAGGUACAUUTT against Emc1 | inactive: 1.91
55 | GGAAAAAACGCACCAGCAUTT against Pou2f1 | inactive: 0.0271
56 | GGGCCAAUAUGUUUGAGUATT against Fam83g | inactive: 0.978
57 | CCUGUCUUUCUUUGAUCAATT against Tspan8 | inactive: 1.14
58 | CCUGAUCUCAGCCUAUACUTT against Rapgef6 | active: -2.26
59 | GGUCCUUGGAGAAGAUAUUTT against Tmem234 | inactive: -0.686
60 | GGUACGAAAAAUUCCUACGTT against Ang4 | inactive: 1.48
61 | GGAAGGUCUUCGAGAUUUUTT against Gpr75 | active: 4.56
62 | GGGUUCUGUUGACUAACUATT against Ube2k | inactive: 1.12
63 | CGUGUAGGCAGAAUAGUUATT against Ankrd16 | inactive: -1.11
64 | GACUAACCAGAUGAAAGUCTT against Vmn1r11 | inactive: -0.66
65 | CCCAACUUCCGAAAGCUGUTT against Slc6a1 | inactive: -0.518
66 | GGAUCAUACAAUAUCCUUUTT against Olfr466 | inactive: 0.227
67 | GCCGCUUUCAUUAAGGCUGTT against Pdcd10 | inactive: 0.835
68 | GGCUGGGAAAAAAAAAGAATT against Ifi205 | inactive: 0.704

Quoted from the listing.
Under z-score, CGUGUAGGCAGAAUAGUUATT against Ankrd16 has the entry inactive: -1.11
Under z-score, CCUGUCUUUCUUUGAUCAATT against Tspan8 has the entry inactive: 1.14
Under z-score, GACUAACCAGAUGAAAGUCTT against Vmn1r11 has the entry inactive: -0.66
Under z-score, GGAAGGUCUUCGAGAUUUUTT against Gpr75 has the entry active: 4.56
